Assay results as given in PubChem BioAssay AID330 (DTP/NCI, 2004).
The list shows only some results of the screen, not a fair sample: it is rich in T/C values a quarter to a half above the control, in often repeated tests (any T/C) and in doses without a T/C. Other doses and runs of a compound stand elsewhere. T/C gives the treated animals as a percentage of the vehicle group. Some doses have a count of surviving animals in place of a T/C: the source holds a T/C of zero for them, seemingly a mark for toxic or unscored doses. Some doses without a T/C left all or most animals alive at the check, yet need not have been tolerated: survival well below the control is almost never listed, so the zero probably covers shortened survival too. Counts of survivors are from the toxicity check (mostly the fifth day) where no day follows; animals may have died later. Schedules are NCI's codes, taken here to give the interval after Q, in days (D) or hours (H), and the number of doses after X. Some schedule codes hold Z or #, which are not explained here. Where survival is the endpoint, this PubChem deposit counts one and a half times the control or more as active, and values a quarter to a half above the control carry no call in these data; other NCI protocols may use other cut-offs.

Tested on: P388 leukemia ip, CD2F1 mice, survival T/C
Assay: NCI In Vivo Anticancer Drug Screen. Data for tumor model P388 Leukemia (intraperitoneal) in CD2F1 (CDF1) mice
Conditions: T/C endpoint: median survival time, higher T/C = longer survival
[1] = dose: 200.0 mg/kg/injection, schedule: Q01DX005 (ip), vehicle: saline with Tween-80
[2] = dose: 100.0 mg/kg/injection, schedule: Q01DX009 (ip), vehicle: Klucel (hydroxypropylcellulose) (HPC)
[3] = dose: 200.0 mg/kg/injection, schedule: Q01DX009 (ip), vehicle: Klucel (hydroxypropylcellulose) (HPC)

## CC(=O)OC1CC(O)C23COC(O)C1(C)C2CC(O)C1(C)C3C(=O)C(O)C2(C)C(c3ccoc3)CC3OC321 (stereo not drawn)
dose: 5.0 mg/kg/injection, schedule: Q01DX009 (ip), vehicle: Klucel (hydroxypropylcellulose) (HPC)
  survivor count: 0 of 6
dose: 10.0 mg/kg/injection, schedule: Q01DX009 (ip), vehicle: Klucel (hydroxypropylcellulose) (HPC)
  survivor count: 0 of 6
dose: 20.0 mg/kg/injection, schedule: Q01DX009 (ip), vehicle: Klucel (hydroxypropylcellulose) (HPC)
  survivor count: 0 of 6

## CCOC(=O)/C=C(\NC1CC(OC2C[C@](O)(C(C)=O)Cc3c(O)c4c(c(O)c32)C(=O)c2c(OC)cccc2C4=O)OC(C)C1O)C(=O)OCC (stereo partly drawn)
dose: 25.0 mg/kg/injection, schedule: Q04DX003 (ip), vehicle: saline with Tween-80
  T/C: 132 % of control
dose: 50.0 mg/kg/injection, schedule: Q04DX003 (ip), vehicle: saline with Tween-80
  T/C: 148 % of control
dose: 100.0 mg/kg/injection, schedule: Q04DX003 (ip), vehicle: saline with Tween-80
  T/C: 133 % of control

## C/C1=C2N=C(/C=C3N=C(/C(C)=C4\[N-]C(C(CC(N)=O)C4(C)CCC(=O)NCC(C)OP(=O)(O)OC4C(CO)OC(n5cnc6cc(C)c(C)cc65)C4O)C4(C)N=C1C(CCC(N)=O)C4(C)CC(N)=O)C(CCC(N)=O)C\3(C)C)C(CCC(N)=O)C/2(C)CC(N)=O.[CH2-]CC.[Co+2] (stereo not drawn)
dose: 7.6 micrograms/kg/injection, schedule: Q#A X Z (ip), vehicle: water
  survivor count: 10 of 10
dose: 761.0 micrograms/kg/injection, schedule: Q#A X Z (ip), vehicle: water
  survivor count: 10 of 10

## O=CNC(Cc1cccc(N(CCCl)CCCl)c1)C(=O)O (stereo not drawn)
dose: 50.0 mg/kg/injection, schedule: Q01DX009 (ip), vehicle: saline sonified
  survivor count: 6 of 6
dose: 100.0 mg/kg/injection, schedule: Q01DX009 (ip), vehicle: saline sonified
  survivor count: 3 of 6

## Clc1ccc(NCc2ccc(CNc3ccc(Cl)cc3)cc2)cc1
dose: 50.0 mg/kg/injection, schedule: Q01DX009 (ip), vehicle: saline with Tween-80
  survivor count: 6 of 6
dose: 100.0 mg/kg/injection, schedule: Q01DX009 (ip), vehicle: saline with Tween-80
  survivor count: 6 of 6
dose: 200.0 mg/kg/injection, schedule: Q01DX009 (ip), vehicle: saline with Tween-80
  survivor count: 5 of 6

## Oc1ccc2ccccc2c1N=Nc1nn[nH]n1
[1]
  survivor count: 0 of 5

## CCC(=O)c1cc(-c2cc(C(=O)CC)[nH]n2)n[nH]1
dose: 240.0 mg/kg/injection, schedule: Q01DX005 (ip), vehicle: Klucel (hydroxypropylcellulose) (HPC)
  survivor count: 3 of 6

## [O-][n+]1nc(Cl)nc2ccccc21
dose: 40.0 mg/kg/injection, schedule: Q01DX009 (ip), vehicle: Klucel (hydroxypropylcellulose) (HPC)
  survivor count: 4 of 6
[2]
  survivor count: 0 of 6
[3]
  survivor count: 1 of 6
dose: 400.0 mg/kg/injection, schedule: Q01DX009 (ip), vehicle: Klucel (hydroxypropylcellulose) (HPC)
  survivor count: 0 of 6

## NC(N)=NS(=O)(=O)c1ccc(N=c2c3ccccc3n(-c3ccccc3)c3ccccc23)cc1
[1]
  survivor count: 5 of 6

## N#Cc1nccnc1C#N
[2]
  survivor count: 3 of 6
[3]
  survivor count: 0 of 6

## O=[N+]([O-])O.[Mn].c1ccc(/C2=c3\cc/c([n-]3)=C(\c3ccccc3)c3ccc([n-]3)/C(c3ccccc3)=c3/cc/c([n-]3)=C(\c3ccccc3)c3ccc2[n-]3)cc1
dose: 200.0 mg/kg/injection, schedule: Q04DX002 (ip), vehicle: Klucel (hydroxypropylcellulose) (HPC)
  survivor count: 6 of 6

## O=c1c(N=Nc2ccc(S(=O)(=O)Nc3nccs3)cc2)c(O)n(-c2ccccc2)n1-c1ccccc1
dose: 12.5 mg/kg/injection, schedule: Q01DX009 (ip), vehicle: Klucel (hydroxypropylcellulose) (HPC)
  survivor count: 6 of 6
[2]
  survivor count: 6 of 6
[3]
  survivor count: 6 of 6

## C=C(C)C1CC=C(C)C(OCCN(CC)CC)C1 (stereo not drawn)
dose: 200.0 mg/kg/injection, schedule: Q01DX005 (ip), vehicle: Klucel (hydroxypropylcellulose) (HPC)
  survivor count: 0 of 6

## O=C(c1ccc(C(=O)N2CC2)cc1)N1CC1
dose: 40.0 mg/kg/injection, schedule: Q04DX003 (ip), vehicle: saline with Tween-80
  survivor count: 4 of 6
